We go through four substances from paper PMC12824188.

Protein sequences, listed by entry. Tags and fused reporters are not part of them. Lines headed by an entry give the natural chain unless they say otherwise; changes in a name come on top. Chains listed by the source or under a name are the forms on record and can include a tag or linker.
exogenous PKCβII (P05771-2, form named): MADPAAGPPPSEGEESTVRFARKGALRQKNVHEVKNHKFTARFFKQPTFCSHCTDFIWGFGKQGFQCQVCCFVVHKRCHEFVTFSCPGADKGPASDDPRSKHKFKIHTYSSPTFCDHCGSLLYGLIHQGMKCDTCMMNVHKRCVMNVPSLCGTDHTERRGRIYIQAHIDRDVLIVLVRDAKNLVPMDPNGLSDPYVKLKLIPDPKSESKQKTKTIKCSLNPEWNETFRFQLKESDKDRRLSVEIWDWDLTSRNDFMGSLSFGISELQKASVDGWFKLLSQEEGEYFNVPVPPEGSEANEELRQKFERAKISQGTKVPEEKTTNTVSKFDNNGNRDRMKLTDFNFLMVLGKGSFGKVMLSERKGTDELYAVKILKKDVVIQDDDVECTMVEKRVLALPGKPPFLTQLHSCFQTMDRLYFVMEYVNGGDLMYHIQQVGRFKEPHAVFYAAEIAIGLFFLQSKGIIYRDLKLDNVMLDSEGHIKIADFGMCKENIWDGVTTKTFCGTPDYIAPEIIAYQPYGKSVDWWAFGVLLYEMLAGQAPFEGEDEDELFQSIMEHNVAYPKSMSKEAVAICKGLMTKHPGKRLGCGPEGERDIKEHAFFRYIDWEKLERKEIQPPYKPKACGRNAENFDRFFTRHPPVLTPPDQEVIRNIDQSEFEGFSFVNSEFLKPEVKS
UniProt Q2M2I8: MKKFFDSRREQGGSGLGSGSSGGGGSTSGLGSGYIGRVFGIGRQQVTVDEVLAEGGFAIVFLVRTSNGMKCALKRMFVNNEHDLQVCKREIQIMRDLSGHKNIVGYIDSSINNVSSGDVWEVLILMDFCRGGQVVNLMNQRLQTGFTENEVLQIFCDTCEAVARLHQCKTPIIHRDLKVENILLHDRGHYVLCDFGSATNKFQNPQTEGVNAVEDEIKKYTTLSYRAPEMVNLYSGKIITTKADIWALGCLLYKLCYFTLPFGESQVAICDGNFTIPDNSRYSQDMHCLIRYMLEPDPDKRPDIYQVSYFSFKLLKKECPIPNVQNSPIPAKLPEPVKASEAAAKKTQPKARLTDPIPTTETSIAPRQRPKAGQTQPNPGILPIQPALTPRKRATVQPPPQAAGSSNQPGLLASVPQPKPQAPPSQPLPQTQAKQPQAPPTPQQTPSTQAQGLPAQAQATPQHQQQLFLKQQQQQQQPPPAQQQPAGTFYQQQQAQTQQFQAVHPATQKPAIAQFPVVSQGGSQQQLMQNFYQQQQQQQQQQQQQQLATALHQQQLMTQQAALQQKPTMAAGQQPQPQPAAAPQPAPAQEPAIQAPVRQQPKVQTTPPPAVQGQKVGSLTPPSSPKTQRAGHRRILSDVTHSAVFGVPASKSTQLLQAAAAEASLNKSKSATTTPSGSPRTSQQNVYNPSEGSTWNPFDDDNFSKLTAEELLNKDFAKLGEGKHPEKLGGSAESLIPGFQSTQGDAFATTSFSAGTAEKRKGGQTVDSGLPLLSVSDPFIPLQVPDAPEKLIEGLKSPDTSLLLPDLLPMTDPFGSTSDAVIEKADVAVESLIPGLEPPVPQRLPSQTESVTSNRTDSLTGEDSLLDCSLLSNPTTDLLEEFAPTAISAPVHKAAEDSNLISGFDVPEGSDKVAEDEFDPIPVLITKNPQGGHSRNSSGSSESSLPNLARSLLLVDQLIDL

Results are given in words; binding and its absence hold for the method and conditions named. Binding seen in cells or lysates may run through a third protein. Some results given as binding are weak or reduced against the parent protein; the word gives no strength.

In assay [1] the target is endogenous PKCβII (human (endogenous in MDA-MB-231 and HT1080)) (UniProt P05771). Description: co-IP; Cells (MDA-MB-231, HT1080) treated with erastin at rising concentrations for 12 h, some with the PKC inhibitors Go6983 or enzastaurin; Pierce IP lysis buffer with phosphatase or protease inhibitors; 1 mg lysate protein with 2 μg primary antibody at 4 °C overnight; protein A/G agarose beads 2 h at 4 °C; four washes; western blot. Endogenous PKCβII or endogenous AAK1 precipitated. In general terms: Immunoblotting shows a protein as a band on a membrane.

Assay [2] deals with endogenous AP2-associated protein kinase 1 (AAK1) (human (endogenous in MDA-MB-231 and HT1080)) (UniProt Q2M2I8). Described as above.

As to “endogenous AP2-associated protein kinase 1 (AAK1) (from UniProt Q2M2I8 1-961) (enzyme)”, the binding result in assay [1] is given as “binds”.

Turning to “endogenous PKCβII (from UniProt P05771-2 1-673) (enzyme)”, in assay [2], the binding result is listed as “binds”.

On to “exogenous AAK1 (from UniProt Q2M2I8 1-961) (enzyme)”, for which, in assay [1], the binding result is reported as “binds”.

Regarding “exogenous PKCβII (from UniProt P05771-2 1-673) (enzyme)”, the binding result in assay [2] was “binds”.
